Experimental data as given in US20060100140A1, “Combination of a) n-{5-[4-(4-methyl-piperazino-methyl)-benzoylamido]2-methylphenyl}-4- (3-pyridyl)-2-pyrimidine-amine and b) a histone deacetylase inhibitor for the treatment of leukemia” (priority 2002, published 2006).

Legend:
[1] = test system: LAMA-S-571 (sensitive LAMA 84 cells); experiment: cells; conditions: Homo sapiens, LAMA-84, read-out: I.C.50 Compound I, sensitive LAMA 84 cells
[2] = test system: LAMA-R-571 (LAMA 84-R cells); experiment: cells; conditions: Homo sapiens, LAMA-84, read-out: I.C.50 Compound I, Compound I-resistant LAMA 84 cells

Cc1ccc(NC(=O)c2ccc(CN3CCN(C)CC3)cc2)cc1Nc1nccc(-c2cccnc2)n1 [Compound I, N-{5-[4-(4-methyl-piperazino-methyl)-benzoylamido]-2-methylphenyl}-4-(3-pyridyl)-2-pyrimidine-amine]
IC50 [1]: 300 nM
IC50 [2]: 1800 nM
